A short description of the series: Sensory evaluation of bitterness of calcium preparation. The note with it: calcium 150 mg/100 mL in salt solution.

With `CC(O)C(=O)[O-].CC(O)C(=O)[O-].[Ca+2]` (centres unmarked) [calcium lactate], the “bitter taste in a solution containing salts” value is on record as “a strong bitter taste is noted”. As to calcium gluconate, the “bitter taste in a solution containing salts” value was “a strong bitter taste is noted”.

Source of the values: US8911805B2, “Calcium preparation and method of production thereof” (Toyo Suisan Kaisha, Ltd., priority 2010, dated 2014).
